Assay results taken from the supplement of paper PMC10849652.
This is one part of the list.

The chains behind the UniProt entries cited, without tags or fusion partners. Where a name states a change or a piece, a line headed by the entry shows the natural chain unless it says otherwise.
UniProt Q92608: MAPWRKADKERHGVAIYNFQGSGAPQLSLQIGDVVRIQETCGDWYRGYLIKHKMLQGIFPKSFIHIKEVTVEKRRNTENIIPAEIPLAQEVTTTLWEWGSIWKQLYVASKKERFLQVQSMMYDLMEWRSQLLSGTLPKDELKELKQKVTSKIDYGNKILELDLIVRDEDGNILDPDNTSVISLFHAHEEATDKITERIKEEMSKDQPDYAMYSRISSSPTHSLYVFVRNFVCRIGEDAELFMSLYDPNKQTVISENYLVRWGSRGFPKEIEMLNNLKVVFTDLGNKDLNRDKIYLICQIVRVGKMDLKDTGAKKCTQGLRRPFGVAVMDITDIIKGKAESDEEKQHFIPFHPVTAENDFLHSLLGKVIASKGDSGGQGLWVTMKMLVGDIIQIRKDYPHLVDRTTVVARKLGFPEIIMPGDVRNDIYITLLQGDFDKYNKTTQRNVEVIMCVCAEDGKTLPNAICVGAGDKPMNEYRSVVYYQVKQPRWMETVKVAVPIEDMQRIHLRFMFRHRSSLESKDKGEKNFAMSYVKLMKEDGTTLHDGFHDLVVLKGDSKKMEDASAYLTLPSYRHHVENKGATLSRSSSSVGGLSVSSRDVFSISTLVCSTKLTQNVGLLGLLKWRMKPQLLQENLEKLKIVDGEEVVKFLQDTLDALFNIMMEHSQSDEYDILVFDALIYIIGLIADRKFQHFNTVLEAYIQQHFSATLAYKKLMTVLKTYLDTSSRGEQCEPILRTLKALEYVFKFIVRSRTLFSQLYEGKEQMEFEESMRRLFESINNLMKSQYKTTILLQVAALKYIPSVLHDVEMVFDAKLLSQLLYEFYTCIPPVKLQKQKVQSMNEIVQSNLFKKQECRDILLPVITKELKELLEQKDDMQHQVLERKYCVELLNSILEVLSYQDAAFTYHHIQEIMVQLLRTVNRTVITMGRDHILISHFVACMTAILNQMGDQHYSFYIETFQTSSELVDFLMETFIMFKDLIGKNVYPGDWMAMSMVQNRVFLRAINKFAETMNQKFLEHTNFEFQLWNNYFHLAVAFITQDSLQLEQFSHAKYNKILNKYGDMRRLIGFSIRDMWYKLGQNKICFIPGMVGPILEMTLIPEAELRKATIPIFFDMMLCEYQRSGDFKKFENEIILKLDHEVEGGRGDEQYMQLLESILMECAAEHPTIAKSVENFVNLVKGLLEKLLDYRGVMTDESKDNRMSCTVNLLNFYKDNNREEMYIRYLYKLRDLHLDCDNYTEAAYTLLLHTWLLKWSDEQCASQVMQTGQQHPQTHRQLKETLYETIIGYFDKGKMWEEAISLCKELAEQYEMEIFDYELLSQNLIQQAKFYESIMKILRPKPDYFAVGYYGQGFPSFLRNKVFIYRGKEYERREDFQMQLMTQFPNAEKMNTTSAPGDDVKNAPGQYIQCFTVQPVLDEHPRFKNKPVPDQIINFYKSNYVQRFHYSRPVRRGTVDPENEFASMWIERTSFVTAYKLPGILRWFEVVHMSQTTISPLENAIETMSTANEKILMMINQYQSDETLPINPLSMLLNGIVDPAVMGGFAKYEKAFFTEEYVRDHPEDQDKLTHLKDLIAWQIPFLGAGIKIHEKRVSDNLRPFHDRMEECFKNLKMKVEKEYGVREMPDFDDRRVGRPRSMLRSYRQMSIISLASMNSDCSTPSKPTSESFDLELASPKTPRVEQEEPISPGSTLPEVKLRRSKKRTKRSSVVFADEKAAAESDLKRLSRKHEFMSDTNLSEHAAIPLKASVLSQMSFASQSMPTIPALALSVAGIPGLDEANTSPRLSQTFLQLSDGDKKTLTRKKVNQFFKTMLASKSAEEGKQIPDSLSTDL
UniProt Q99543: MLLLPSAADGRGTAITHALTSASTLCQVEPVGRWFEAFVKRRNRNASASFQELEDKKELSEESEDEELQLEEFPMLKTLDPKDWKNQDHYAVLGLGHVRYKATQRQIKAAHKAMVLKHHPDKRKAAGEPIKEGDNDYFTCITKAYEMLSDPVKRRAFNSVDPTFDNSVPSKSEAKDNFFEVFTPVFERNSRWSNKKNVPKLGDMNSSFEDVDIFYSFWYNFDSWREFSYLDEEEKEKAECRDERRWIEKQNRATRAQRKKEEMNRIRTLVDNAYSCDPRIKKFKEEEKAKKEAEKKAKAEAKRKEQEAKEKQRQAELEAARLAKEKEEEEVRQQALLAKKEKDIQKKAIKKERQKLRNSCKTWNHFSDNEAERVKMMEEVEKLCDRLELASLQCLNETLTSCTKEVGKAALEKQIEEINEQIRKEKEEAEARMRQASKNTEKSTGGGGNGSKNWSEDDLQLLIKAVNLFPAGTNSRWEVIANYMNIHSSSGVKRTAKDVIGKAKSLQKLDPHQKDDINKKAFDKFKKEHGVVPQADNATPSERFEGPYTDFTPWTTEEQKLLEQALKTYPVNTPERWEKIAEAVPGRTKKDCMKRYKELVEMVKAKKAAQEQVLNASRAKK
UniProt Q9H5Z1: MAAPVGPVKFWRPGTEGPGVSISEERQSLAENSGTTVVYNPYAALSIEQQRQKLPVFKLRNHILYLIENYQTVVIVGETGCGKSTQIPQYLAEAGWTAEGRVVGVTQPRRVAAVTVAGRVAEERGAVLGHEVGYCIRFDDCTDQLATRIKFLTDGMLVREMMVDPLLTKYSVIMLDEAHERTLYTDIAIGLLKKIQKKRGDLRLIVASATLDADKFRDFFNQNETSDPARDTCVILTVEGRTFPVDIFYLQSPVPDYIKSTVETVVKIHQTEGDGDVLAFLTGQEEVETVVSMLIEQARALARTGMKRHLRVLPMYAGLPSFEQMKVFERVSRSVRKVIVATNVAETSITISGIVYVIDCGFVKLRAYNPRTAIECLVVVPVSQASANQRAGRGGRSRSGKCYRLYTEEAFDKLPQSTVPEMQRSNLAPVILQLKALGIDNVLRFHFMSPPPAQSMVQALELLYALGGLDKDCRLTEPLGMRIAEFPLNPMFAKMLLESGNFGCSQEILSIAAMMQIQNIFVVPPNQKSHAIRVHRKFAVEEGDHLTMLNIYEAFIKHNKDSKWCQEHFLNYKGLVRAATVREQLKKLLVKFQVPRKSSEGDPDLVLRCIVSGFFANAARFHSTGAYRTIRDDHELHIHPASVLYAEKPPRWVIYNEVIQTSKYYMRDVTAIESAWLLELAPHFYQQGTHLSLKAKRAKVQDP
UniProt P52429: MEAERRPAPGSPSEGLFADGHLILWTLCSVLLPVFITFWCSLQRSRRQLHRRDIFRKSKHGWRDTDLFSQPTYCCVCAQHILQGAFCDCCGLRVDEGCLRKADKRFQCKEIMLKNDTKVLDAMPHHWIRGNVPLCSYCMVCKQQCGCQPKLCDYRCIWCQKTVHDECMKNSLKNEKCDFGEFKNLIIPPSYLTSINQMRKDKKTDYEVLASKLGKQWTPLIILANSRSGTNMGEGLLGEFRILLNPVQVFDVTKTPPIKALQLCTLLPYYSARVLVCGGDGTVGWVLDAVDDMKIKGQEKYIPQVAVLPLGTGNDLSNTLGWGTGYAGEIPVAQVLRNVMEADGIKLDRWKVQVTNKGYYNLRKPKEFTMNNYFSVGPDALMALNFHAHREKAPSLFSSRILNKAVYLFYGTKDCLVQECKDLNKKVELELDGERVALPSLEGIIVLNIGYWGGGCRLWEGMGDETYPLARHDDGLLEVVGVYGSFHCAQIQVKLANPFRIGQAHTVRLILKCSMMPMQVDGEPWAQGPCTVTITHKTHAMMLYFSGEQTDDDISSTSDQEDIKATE
UniProt Q8TEK3: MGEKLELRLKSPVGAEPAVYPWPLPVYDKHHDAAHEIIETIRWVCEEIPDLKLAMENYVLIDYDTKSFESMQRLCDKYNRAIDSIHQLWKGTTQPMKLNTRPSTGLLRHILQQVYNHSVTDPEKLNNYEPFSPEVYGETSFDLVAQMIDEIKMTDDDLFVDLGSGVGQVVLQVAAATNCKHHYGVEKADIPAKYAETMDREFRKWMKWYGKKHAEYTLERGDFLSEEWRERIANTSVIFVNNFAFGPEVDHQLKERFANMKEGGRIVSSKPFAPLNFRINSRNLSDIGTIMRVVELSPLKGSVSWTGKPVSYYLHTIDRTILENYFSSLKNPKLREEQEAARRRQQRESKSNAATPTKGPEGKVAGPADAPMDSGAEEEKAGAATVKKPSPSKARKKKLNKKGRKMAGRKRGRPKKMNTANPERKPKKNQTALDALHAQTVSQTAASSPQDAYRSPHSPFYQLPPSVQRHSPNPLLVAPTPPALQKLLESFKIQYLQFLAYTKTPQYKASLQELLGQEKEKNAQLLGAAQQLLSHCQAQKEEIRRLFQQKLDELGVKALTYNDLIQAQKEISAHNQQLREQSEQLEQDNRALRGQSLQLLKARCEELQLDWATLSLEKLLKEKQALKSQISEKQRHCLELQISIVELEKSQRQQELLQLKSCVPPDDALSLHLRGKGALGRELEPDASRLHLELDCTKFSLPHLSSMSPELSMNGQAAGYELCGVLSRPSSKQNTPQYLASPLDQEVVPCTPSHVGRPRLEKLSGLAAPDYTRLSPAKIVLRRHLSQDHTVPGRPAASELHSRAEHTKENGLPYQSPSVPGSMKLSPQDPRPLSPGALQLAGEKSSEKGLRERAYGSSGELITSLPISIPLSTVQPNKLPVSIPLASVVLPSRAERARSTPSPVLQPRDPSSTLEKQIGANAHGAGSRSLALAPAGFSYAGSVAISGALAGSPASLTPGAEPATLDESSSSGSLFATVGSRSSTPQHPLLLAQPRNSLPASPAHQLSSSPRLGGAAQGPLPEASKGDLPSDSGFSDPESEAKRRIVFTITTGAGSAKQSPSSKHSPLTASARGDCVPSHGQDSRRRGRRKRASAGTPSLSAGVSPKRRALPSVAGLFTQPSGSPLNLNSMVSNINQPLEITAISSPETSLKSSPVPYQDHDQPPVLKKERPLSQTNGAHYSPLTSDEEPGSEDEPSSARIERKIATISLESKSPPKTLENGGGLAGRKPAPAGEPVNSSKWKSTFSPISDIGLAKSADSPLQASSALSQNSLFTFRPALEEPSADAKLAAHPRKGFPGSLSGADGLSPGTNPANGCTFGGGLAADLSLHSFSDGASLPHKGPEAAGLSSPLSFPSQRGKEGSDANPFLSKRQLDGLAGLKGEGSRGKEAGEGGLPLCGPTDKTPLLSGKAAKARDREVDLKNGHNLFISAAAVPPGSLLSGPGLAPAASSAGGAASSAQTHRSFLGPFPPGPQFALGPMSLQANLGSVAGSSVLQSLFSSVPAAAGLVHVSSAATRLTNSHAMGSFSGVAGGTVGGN
UniProt Q96HY7: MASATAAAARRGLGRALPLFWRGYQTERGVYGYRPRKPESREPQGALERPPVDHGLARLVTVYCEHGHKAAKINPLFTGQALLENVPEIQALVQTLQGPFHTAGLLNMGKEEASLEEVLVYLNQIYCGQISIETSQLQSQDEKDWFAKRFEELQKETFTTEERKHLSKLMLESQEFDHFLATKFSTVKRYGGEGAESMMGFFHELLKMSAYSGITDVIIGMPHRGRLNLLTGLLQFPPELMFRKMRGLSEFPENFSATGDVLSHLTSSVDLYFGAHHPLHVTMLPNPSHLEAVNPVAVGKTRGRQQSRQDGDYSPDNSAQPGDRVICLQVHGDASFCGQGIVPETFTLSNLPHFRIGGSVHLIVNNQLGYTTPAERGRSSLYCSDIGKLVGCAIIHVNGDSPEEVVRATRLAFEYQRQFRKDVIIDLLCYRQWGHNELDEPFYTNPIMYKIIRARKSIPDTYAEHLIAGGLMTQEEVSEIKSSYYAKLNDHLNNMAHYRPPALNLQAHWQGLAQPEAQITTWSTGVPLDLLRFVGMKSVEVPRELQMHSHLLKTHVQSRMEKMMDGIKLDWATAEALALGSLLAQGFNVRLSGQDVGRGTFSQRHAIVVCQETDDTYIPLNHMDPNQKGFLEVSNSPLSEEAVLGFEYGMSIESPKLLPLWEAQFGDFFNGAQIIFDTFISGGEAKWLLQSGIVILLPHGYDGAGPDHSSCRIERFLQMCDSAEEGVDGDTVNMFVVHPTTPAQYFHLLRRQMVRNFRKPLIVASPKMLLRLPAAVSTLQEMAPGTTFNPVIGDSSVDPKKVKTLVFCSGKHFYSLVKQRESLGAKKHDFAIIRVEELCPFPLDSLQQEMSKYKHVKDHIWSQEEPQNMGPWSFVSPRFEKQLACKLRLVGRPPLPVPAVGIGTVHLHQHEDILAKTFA

How the values were obtained:
Assay in all cases: log2 fold change, soluble protein after heating vs DMSO (PISA); higher = thermal stabilisation; K562 lysate, 10 uM; active = over 0.2 and 3.5 SD of the protein, either way, in both replicates (recomputed)
erlotinib = compound: C#Cc1cccc(Nc2ncnc3cc(OCCOC)c(OCCOC)cc23)c1 [erlotinib]
How it was run: (§1)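 Following dounce homogenisation of K562 pellets in PBS pH 7.4 with 1 mM MgCl2, crude extract at 1 mg/mL protein was incubated for 30 min with 10 μM compound. Aliquots were then heated for 3 min over 48°C-58°C and pooled, NP-40 was added to 0.5% at 4°C, and soluble protein was recovered as the supernatant at 21,000xg for 90 min. Channel-sum-equalised TMTpro 16plex LC-MS/MS quantified this protein. Each value, from duplicates, is a log-two fold change in thermal stability relative to solvent controls.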

[1] = compound: C/C(=N\NC(=O)C1=CC(=CC=C1)S(=O)(=O)N2CCOCC2)/C3=C(C=CC(=C3)Cl)O
How it was run: as §1

[2] = compound: C1=CC(=CC=C1C2=NC3=C(N2)C=C(C=C3)C(=O)N)OC4=CC=C(C=C4)Cl
How it was run: as §1

[3] = compound: C1=CC2=C(C=CC(=C2)/C=C\3/C(=O)NC(=NCC4=CC=CS4)S3)N=C1
How it was run: as §1

[4] = compound: C1=CC=C(C=C1)C2=NC(=C(N2)C3=CC=NC=C3)C4=CC(=C(C=C4)Cl)O
How it was run: as §1

[5] = compound: C1=CC=C2C(=C1)C3=NNC4=CC=CC(=C43)C2=O
How it was run: as §1

[6] = compound: C1CCN(C1)C(=O)NC2=CC=CC(=C2)NC3=NC=C(C(=N3)NCCC4=CN=CN4)Br
How it was run: as §1

[7] = compound: C1CN(CCC1(CC2=CC=C(C=C2)Cl)N)C3=NC=NC4=C3C=CN4
How it was run: as §1

IRAK-1-4 Inhibitor I = compound: C1COCCN1CCN2C3=CC=CC=C3N=C2NC(=O)C4=CC(=CC=C4)[N+](=O)[O-] [IRAK-1-4 Inhibitor I]
How it was run: as §1

[8] = compound: CC(=O)c1cnc2ccc(-c3cc(Cl)c(O)c(Cl)c3)nc2c1N[C@H]1CC[C@H](CN(C)C)CC1
How it was run: as §1

ralimetinib = compound: CC(C)(C)Cn1c(N)nc2ccc(-c3[nH]c(C(C)(C)C)nc3-c3ccc(F)cc3)nc21 [ralimetinib]
How it was run: as §1

[9] = compound: CC(C)(O)CC(=O)NCCn1ccc2ncnc(Nc3ccc(Oc4cccc(C(F)(F)F)c4)c(Cl)c3)c21
How it was run: as §1

[10] = compound: CC(C)C1=C2N=C(C=C(N2N=C1)NCC3=CC=CC=C3)NCCCCCCN
How it was run: as §1

[11] = compound: CC1=C(C(CC(=O)N1)C2=CC=C(C=C2)C(F)(F)F)C(=O)NC3=C(C=C4C(=C3)C=NN4)F
How it was run: as §1

[12] = compound: CC1=C(C2=C(C=C1)C(=O)C3=CC=CC=C3N2CCCN)C
How it was run: as §1

[13] = compound: CC1=C(C=C(C=C1)NC(=O)C2=CC(=CC=C2)C(C)(C)C#N)NC3=CC4=C(C=C3)N=CN(C4=O)C
How it was run: as §1

[14] = compound: CC1=C(C=C(C=C1)NC(=O)C2=CC(=CC=C2)N(C)C)NC(=O)C3=CC=C(C=C3)O
How it was run: as §1

[15] = compound: CC1=CC=C(C=C1)SC2=C3C=C(SC3=CN=C2)C(=O)N
How it was run: as §1

[16] = compound: C1=CC2=NC=CN=C2C=C1/C=C/3\C(=O)NC(=O)S3
How it was run: as §1

ibrutinib = compound: C=CC(=O)N1CCC[C@@H](n2nc(-c3ccc(Oc4ccccc4)cc3)c3c(N)ncnc32)C1 [ibrutinib]
How it was run: as §1

Measured: log2 fold change

DOCK2 (UniProt Q92608)
inactive: erlotinib 0.182 | [1] 0.317 | [2] 0.074 | [3] -0.041 | [4] -0.003 | [5] -0.099 | [6] 0.023 | [7] -0.054 | IRAK-1-4 Inhibitor I -0.082 | [8] 0.115 | ralimetinib -0.142 | [9] 0.05 | [10] -0.109 | [11] 0.163 | [12] -0.218 | [13] 0.043 | [14] 0.043 | [15] -0.052

DNAJC2 (UniProt Q99543)
inactive: erlotinib -0.017 | [1] -0.028 | [2] -0.047 | [3] 0.021 | [16] -0.007 | [4] -0.009 | [5] 0.02 | [6] 0.013 | [7] -0.021 | IRAK-1-4 Inhibitor I -0.079 | ibrutinib -0.004 | [8] -0.001 | ralimetinib 0.027 | [9] 0.018 | [10] -0.008 | [11] 0.009 | [12] -0.005 | [13] -0.043 | [14] 0.015 | [15] 0.028

DHX35 (UniProt Q9H5Z1)
inactive: erlotinib 0.016 | [1] 0.095 | [2] -0.032 | [3] -0.146 | [16] 0.001 | [4] 0.026 | [5] -0.012 | [6] -0.021 | [7] -0.009 | IRAK-1-4 Inhibitor I -0.025 | ibrutinib -0.018 | [8] -0.04 | ralimetinib 0.045 | [9] -0.059 | [10] -0.081 | [11] 0.06 | [12] -0.09 | [13] 0.146 | [14] 0.015 | [15] 0.092

DONSON (UniProt Q9NYP3)
inactive: erlotinib 0 | [2] 0.051 | [16] 0.014 | [4] 0.06 | IRAK-1-4 Inhibitor I -0.021 | ibrutinib 0.059 | [8] 0.002 | ralimetinib -0.033 | [9] 0.074 | [10] -0.022 | [11] -0.071 | [12] -0.037 | [13] 0.062 | [14] -0.096 | [15] -0.013

DGKE (UniProt P52429)
inactive: erlotinib -0.09 | [1] 0.322 | [2] -0.19 | [3] -0.325 | [4] -0.059 | [5] 0.143 | [6] 0.094 | [7] 0.061 | IRAK-1-4 Inhibitor I -0.068 | ralimetinib -0.096 | [9] -0.211 | [10] -0.002 | [12] -0.058 | [14] -0.014

DOT1L isoform 1 (UniProt Q8TEK3)
inactive: erlotinib -0.183 | [1] -0.196 | [2] 0.002 | [3] 0.079 | [5] -0.004 | [6] -0.277 | [7] 0.036 | [10] 0.005 | [12] 0.27 | [13] -0.334

DHTKD1 (UniProt Q96HY7)
inactive: erlotinib 0.065 | [2] 0.015 | [16] 0.029 | [4] -0.04 | IRAK-1-4 Inhibitor I 0.011 | ibrutinib 0.016 | [8] 0.083 | ralimetinib -0.018 | [9] -0.039 | [10] 0.056 | [11] -0.147 | [13] -0.042 | [14] 0.038 | [15] -0.036
